According to publication PMC10813790, “Lymphocyte-Specific Protein 1 Regulates Expression and Stability of Endothelial Nitric Oxide Synthase” (Biomolecules, 2024):
No constants are given. Whether binding was seen depends on the method and setting. In cells and extracts the contact can be indirect. Some entries that bind do so weakly or less than the wild type.

By UniProt entry, the sequences of proteins in these tests, tags left out.
UniProt P33241: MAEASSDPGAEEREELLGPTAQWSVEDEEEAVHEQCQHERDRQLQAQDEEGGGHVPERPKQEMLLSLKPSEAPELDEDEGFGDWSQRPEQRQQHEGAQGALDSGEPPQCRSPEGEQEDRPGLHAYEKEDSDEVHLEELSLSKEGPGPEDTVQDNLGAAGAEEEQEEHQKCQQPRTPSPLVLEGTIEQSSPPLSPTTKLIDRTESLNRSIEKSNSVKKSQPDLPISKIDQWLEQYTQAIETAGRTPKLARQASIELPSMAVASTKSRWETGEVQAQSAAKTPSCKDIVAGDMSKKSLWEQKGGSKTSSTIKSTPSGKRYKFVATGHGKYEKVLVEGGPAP

Target: T1, endothelial nitric oxide synthase (eNOS), wild-type 140 kDa, human (human (endogenous in EA.hy926)) (UniProt P29474)
T1 sequence: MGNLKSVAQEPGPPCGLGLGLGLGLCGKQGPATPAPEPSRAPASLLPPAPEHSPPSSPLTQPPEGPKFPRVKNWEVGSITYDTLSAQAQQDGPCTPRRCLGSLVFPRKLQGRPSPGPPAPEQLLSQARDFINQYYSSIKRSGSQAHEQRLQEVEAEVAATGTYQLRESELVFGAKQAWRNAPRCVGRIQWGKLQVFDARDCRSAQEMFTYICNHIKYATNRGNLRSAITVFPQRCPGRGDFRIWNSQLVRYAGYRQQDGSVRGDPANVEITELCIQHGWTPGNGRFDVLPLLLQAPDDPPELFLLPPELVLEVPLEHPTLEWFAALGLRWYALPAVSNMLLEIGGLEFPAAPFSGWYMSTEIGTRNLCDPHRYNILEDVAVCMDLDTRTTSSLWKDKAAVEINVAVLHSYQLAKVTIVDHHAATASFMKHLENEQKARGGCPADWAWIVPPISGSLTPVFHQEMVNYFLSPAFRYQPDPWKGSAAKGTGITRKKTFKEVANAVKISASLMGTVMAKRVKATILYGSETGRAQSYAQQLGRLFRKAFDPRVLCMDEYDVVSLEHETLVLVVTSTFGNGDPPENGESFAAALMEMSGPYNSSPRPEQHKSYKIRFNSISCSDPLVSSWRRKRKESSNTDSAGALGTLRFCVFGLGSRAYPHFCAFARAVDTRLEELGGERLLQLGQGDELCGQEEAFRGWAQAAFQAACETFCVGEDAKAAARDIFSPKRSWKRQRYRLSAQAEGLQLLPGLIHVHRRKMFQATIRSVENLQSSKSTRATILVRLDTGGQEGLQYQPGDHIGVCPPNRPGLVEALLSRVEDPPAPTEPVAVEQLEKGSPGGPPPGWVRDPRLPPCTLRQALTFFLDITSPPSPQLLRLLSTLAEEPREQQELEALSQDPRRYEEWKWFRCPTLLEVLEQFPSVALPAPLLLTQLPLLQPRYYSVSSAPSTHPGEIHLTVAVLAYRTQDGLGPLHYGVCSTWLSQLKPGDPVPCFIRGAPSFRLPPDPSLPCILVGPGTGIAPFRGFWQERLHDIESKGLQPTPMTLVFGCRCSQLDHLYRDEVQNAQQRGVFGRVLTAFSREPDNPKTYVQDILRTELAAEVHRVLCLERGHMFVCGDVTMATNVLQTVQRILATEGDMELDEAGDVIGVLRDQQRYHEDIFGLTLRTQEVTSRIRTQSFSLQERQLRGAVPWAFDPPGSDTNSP
Assay: co-IP; native proteins of confluent, unstimulated EA.hy926 cells; CHAPS immunoprecipitation buffer; anti-eNOS or anti-LSP1 rabbit polyclonal antibody overnight at 4 °C, protein A/G magnetic beads, washed in PBST; immunoblot

lymphocyte-specific protein 1 (LSP1), human, native (from UniProt P33241 1-339)
binding: binds
